{"source": "paper PMC12780140", "about": "“Structural basis of sodium ion-dependent carnitine transport by OCTN2” (Nature Communications, 2025)", "target": "T1, OCTN2 (novel organic cation transporter 2) (Homo sapiens, UniProt O76082)", "T1 construct": "gene SLC22A5", "T1 sequence (O76082 1-557)": "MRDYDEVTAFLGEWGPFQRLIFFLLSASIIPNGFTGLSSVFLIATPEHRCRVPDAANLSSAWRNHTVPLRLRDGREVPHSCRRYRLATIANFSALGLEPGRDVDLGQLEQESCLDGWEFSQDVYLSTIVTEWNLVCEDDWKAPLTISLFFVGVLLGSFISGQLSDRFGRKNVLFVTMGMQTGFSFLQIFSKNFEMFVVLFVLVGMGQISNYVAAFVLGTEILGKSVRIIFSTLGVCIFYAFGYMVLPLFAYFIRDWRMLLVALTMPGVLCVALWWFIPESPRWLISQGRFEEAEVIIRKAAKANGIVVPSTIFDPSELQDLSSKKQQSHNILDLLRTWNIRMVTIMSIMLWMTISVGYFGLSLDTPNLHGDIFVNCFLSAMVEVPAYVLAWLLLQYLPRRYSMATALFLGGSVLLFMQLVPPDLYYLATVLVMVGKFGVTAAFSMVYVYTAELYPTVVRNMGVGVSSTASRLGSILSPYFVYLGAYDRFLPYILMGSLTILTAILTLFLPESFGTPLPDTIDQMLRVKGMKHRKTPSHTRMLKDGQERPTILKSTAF", "test": "cell-based"}
{"smiles": "CC(C)[N+]1(C)C2CCC1CC(OC(=O)C(CO)c1ccccc1)C2", "note": "(stereo not shown) [ipratropium]", "values": [{"measurement": "IC50", "value": "615 ± 175", "unit": "µM"}]}
